For two molecules, binding results are on record in patent US20240301051A1 (BEIGENE SWITZERLAND, published 2024).

No constants are given. Whether binding was seen depends on the method and setting. Binding can be weak; no strength is given.

Assay [1] concerns the target cyno CLDN6 (cyno). Put plainly: flow cytometry.
Assay [2] deals with cyno CLDN6 (cyno). Description: flow cytometry, CHOK1-cyno CLDN6 cells. (In flow cytometry, cells or beads pass a laser one at a time.)

B1: BG87P (mouse anti-CLDN6 antibody, hybridoma clone) (antibody, V domains shown)
VH: QIQLQQSGPELVKPGASVKISCKASGYSFTDYHINWVKQRPGQGLEWIGWIYPGSGYTKYNEKFKVKATLTVDTSSSTAYMHLTSLTSEDSAVYFCARSGIYHYVSSYYFDHWGQGTTLTVSS
VL: DIVMTQSHTFMSTSVGDRVSITCKASQDVGTAVAWYQQKPGQSPKLLIYWASTRHTGVPDRFTGSGSGTDFTLTISNVQSEDLADYFCQQYSSYTFGGGTKLEIK
With B1, in assay [1], the binding result is given as “binds”.

B2: BG87P-34 (antibody, V domains shown)
VH: EVQLQESGGGLVQPGGSLRLSCAASGYSFSDYHINWVRQAPGKGLEWVGYIYPGSGHTKYNEKFKGRFTISRDTSSNTAYLQMNSLRAEDTAVYYCARSGIYHYVSSYYFDHWGQGTLVTVSS
VL: DIQMTQSPSSLSASVGDRVTITCKASQDAGSAVAWYQQKPGKAPKLLIYWASTRHTGVPSRFSGSGSGTDFTLTISSLQPEDFATYYCQQYSSYTFGGGTKLEIK
notes: Final lead clone, framework IGHV3-23 and IGKV1-39; also called BG87-34
B2: in assay [2], the binding entry was “binds”.
